The other results are listed elsewhere or left out.

Sequences of proteins named here, by UniProt entry; tags and fusion partners are left off.
UniProt Q0JBA9, entry or part of it: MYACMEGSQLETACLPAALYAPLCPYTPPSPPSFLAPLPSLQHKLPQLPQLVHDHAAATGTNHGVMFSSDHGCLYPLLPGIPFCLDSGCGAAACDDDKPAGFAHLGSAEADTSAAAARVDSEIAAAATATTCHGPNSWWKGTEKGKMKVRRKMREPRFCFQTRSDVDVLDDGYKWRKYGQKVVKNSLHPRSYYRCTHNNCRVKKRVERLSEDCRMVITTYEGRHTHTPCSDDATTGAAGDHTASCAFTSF

The test addresses OsWRKY34 (Oryza sativa, UniProt Q0JBA9 1-250). The experiment in a line: protein-binding microarray (RPBM); PBS, 2% BSA, 51.3 ng/ul salmon testes DNA, 50 uM zinc acetate, 200 nM TF, 25 C, 1 h; high values mean tight binding. The following applies: protein: recombinant; tags: N-terminal polyhistidine and DsRed monomer fusion (pET32a); label: CyDye5-dUTP incorporated in the synthesized complementary strand; 3' TTTTT single-stranded linker to array surface; dsDNA, one strand shown. A digest of the protocol: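 Transcription factors were each fused at the N-terminus to a polyhistidine tag plus DsRed and expressed in E. coli BL21-CodonPlus before Ni–NTA purification. Binding to a double-stranded custom Agilent array was carried out with 200 nM protein at 25 °C for 1 h in PBS, 2% BSA, salmon testes DNA and 50 µM zinc acetate. The binding signal is per-feature fluorescence intensity, in arbitrary units, on an Axon 4000B scanner.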
“GCCGCTTCGATGCTGGCGGCAGGGTGGGGCGGGGATGCCTCGGAGTCACCTAGTGCAG”: the binding signal was 11500 fluorescence intensity (a.u.).

In the case of “TTGAAACCTTTCTGCGCCACTAGCTCCTAATTCCAAAACCCGGAGTCACCTAGTGCAG”, the binding signal is 8040 fluorescence intensity (a.u.).

For the sequence “ATGGCATTGAGCATTACAGTTGAATTTGTGTAGTTTTTAGCGGAGTCACCTAGTGCAG”, the binding signal was 8390 fluorescence intensity (a.u.).

As to “TTGTCGTTTCCATGTAGAACTCTAGTTATCTTTACTTATCCGGAGTCACCTAGTGCAG”, the binding signal was 9380 fluorescence intensity (a.u.).

“AATTCCCCACCGCGCCACCGCCTCGGCCCCATCACCTCGTCGGAGTCACCTAGTGCAG”: the binding signal is 8700 fluorescence intensity (a.u.).

For “TCGCCCGCGTCAGCCCCGCCGTCGCTCGTCCGTCGCCACCCGGAGTCACCTAGTGCAG”, the binding signal is 8780 fluorescence intensity (a.u.).

Regarding “TGTGGTGCGTGCCGCGTGCGGGAGGGCAGGGTGAGGTGAGCGGAGTCACCTAGTGCAG”, the binding signal is 8810 fluorescence intensity (a.u.).

For “TGAGGCTGACACGTGGGCCCTACATTTTCTTTTCACTTACCGGAGTCACCTAGTGCAG”, the binding signal is 9220 fluorescence intensity (a.u.).

“GCTCGGTTGCTTCTCTTCTTTCCTCTCTGTCTTCTGTCTTCGGAGTCACCTAGTGCAG”: the binding signal is 11400 fluorescence intensity (a.u.).

Regarding “TCCGTCCCTAAATATTTGACGCCGTTGACTTTTTAACACACGGAGTCACCTAGTGCAG”, the binding signal was 35700 fluorescence intensity (a.u.).

Turning to “GAAGTTAGGGTTTGAGGGTTTGGTTCCGGAGGGTAGGGTCCGGAGTCACCTAGTGCAG”, the binding signal was 9850 fluorescence intensity (a.u.).

For “TAACGATTTTTTTTTTGGGAGGGTGGGGATTTTTTTTTTCCGGAGTCACCTAGTGCAG”, the binding signal was 24100 fluorescence intensity (a.u.).

For the sequence “AATTTTTATATTGTTGACCTGCAGATCCTTATGTTGGACTCGGAGTCACCTAGTGCAG”, the binding signal was 8260 fluorescence intensity (a.u.).

On to “CGATGCTCGATCGGCTGGTAATTGACCATATTTATCATTTCGGAGTCACCTAGTGCAG”, for which the binding signal was 8370 fluorescence intensity (a.u.).

On to “AATCTTAGTTACCGAATGCTAATTCCACTTACAATCATTTCGGAGTCACCTAGTGCAG”, for which the binding signal was 9440 fluorescence intensity (a.u.).

As to “GCTGCCGCAAACTCGCTCGGCTATCGTGCCATGCGCCTATCGGAGTCACCTAGTGCAG”, the binding signal is 8300 fluorescence intensity (a.u.).

As for “GCGCAGCGTACGTCTCATGCATGCATCCTTTATCGTACAACGGAGTCACCTAGTGCAG”, the binding signal was 8280 fluorescence intensity (a.u.).

Turning to “CGTAACCCGTTGACACCCGCGACCCCTGTTTTCGCTTTTCCGGAGTCACCTAGTGCAG”, the binding signal is 12100 fluorescence intensity (a.u.).

With “CCGACGTCGTCTGCGCCATCCCTAGCCGCCGCCATCCGCTCGGAGTCACCTAGTGCAG”, the binding signal was 9920 fluorescence intensity (a.u.).

On to “AGGGGTTGTACAGTAGAGTGTTTGTTTTATTTTTCCCTTTCGGAGTCACCTAGTGCAG”, for which the binding signal was 9150 fluorescence intensity (a.u.).

As for “TTCCCGTGCCGCTATGACCTTCGTCCTCGGTCTGTTGACCCGGAGTCACCTAGTGCAG”, the binding signal was 14700 fluorescence intensity (a.u.).

“CTGCCTCGATCGATCGATCTCATCTCATCTGCGCTGTTCTCGGAGTCACCTAGTGCAG”: the binding signal is 8160 fluorescence intensity (a.u.).

As for “GAGGGCGGTTTTGCTGATGTGGCGTTGACGTGGCGATGTTCGGAGTCACCTAGTGCAG”, the binding signal is 11500 fluorescence intensity (a.u.).

Regarding “ATCTAGTCCCACCTATTATACACACATTACGTCTTGAAGTCGGAGTCACCTAGTGCAG”, the binding signal is 9850 fluorescence intensity (a.u.).

For the sequence “TAACCTATTATATTCCGCTTGGTGTTTTTTTACCCTTTATCGGAGTCACCTAGTGCAG”, the binding signal was 13000 fluorescence intensity (a.u.).

On to “CTGTTTAGATCTCCTAGCAACATTTTACACTCTCTTGCATCGGAGTCACCTAGTGCAG”, for which the binding signal was 8740 fluorescence intensity (a.u.).

With “GAATGTGCAATTATGTTCTTTTCTTGAATGATTTGCTAATCGGAGTCACCTAGTGCAG”, the binding signal was 10000 fluorescence intensity (a.u.).

In the case of “CCACTCGCACCCAACGGATCTCTCCCTCCTCCGCCTTCTCCGGAGTCACCTAGTGCAG”, the binding signal was 8560 fluorescence intensity (a.u.).

“GGTAAGAGCAGCCTTGTATTGTACTGTCCAATTTTTGATCCGGAGTCACCTAGTGCAG”: the binding signal is 9450 fluorescence intensity (a.u.).

Turning to “GCCGCCGCTGGCGGGTGGGGATCGGTGGGGCAGTTCGGGCCGGAGTCACCTAGTGCAG”, the binding signal was 9050 fluorescence intensity (a.u.).

For the sequence “GGGTTCTTGGCTACTGGGGCTGTCTCTCTATCTTTCTTGACGGAGTCACCTAGTGCAG”, the binding signal was 21600 fluorescence intensity (a.u.).

As to “CTCCGCGTCGATCACCCAACCACGCCCGCCGCCGCCGCCGCGGAGTCACCTAGTGCAG”, the binding signal was 8060 fluorescence intensity (a.u.).

As to “TTTTTACTTCGATTTCTGTTATCACATTTTTTAAAAATTGCGGAGTCACCTAGTGCAG”, the binding signal is 9970 fluorescence intensity (a.u.).

As for “TTGTATATTGTTTGTGCTTTTGGTCGACCTGTCTGTCACCCGGAGTCACCTAGTGCAG”, the binding signal was 9530 fluorescence intensity (a.u.).

Turning to “ACCGACCTACTTAATTGCCTCCTGCCAAAATGACCCTTTACGGAGTCACCTAGTGCAG”, the binding signal was 9140 fluorescence intensity (a.u.).

In the case of “GGTGCTCAGCCTCCGCGCCAACAGCCTCTCCGGCGAGTTCCGGAGTCACCTAGTGCAG”, the binding signal was 8200 fluorescence intensity (a.u.).

Regarding “AACTTTCTTGTTTTCCATTACCACATTTTCCACATAAAAGCGGAGTCACCTAGTGCAG”, the binding signal was 8050 fluorescence intensity (a.u.).

For the sequence “AAAGGGAGAGTTCAATGATGGGGTAGGGTACAGGGGAAACCGGAGTCACCTAGTGCAG”, the binding signal is 12300 fluorescence intensity (a.u.).

As to “TATCTCCTCTTCTCTCTTCTTATCCGTATGTGTTTAGAGCCGGAGTCACCTAGTGCAG”, the binding signal is 9630 fluorescence intensity (a.u.).

“ACACACGATTTCACTACCGCCCGATTTACTGTCGCGAAGACGGAGTCACCTAGTGCAG”: the binding signal was 11100 fluorescence intensity (a.u.).

Take “TTCTGTACGTCTGTGTGTGTAGTCAACCTAAAATAATTTTCGGAGTCACCTAGTGCAG”: the binding signal is 10500 fluorescence intensity (a.u.).

In the case of “CGTTCATCCTGTCCACCCAGAGCCATTGCCACACACACACCGGAGTCACCTAGTGCAG”, the binding signal was 8250 fluorescence intensity (a.u.).

Source of the values: publication PMC7819943, “Rice protein-binding microarrays: a tool to detect cis-acting elements near promoter regions in rice”.
